Measurements as given in PMC5661634.
No constants are given. Whether binding was seen depends on the method and setting. In cells and extracts the contact can be indirect. Some binding calls cover weakened binding; strength is not graded here. Where a sequence is shown, tags or fusion partners need not be part of it.

Sequences of proteins named here, by UniProt entry; tags and fusion partners are left off.
UniProt Q13596: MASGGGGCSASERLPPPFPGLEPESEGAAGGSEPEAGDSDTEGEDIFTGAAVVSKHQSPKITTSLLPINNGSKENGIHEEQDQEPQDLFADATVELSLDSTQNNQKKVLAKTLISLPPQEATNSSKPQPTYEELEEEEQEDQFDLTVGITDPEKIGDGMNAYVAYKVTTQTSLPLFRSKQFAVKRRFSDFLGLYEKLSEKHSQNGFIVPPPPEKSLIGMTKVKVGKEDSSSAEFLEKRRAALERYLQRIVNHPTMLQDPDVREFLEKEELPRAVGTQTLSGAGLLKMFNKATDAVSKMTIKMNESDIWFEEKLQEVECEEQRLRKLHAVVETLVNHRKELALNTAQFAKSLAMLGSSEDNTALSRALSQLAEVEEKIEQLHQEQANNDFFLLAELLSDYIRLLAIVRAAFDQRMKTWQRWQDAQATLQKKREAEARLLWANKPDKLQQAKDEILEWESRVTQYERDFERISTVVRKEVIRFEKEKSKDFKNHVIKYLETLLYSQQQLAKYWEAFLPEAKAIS

Target: T1, Flag-YFP-SNX6 WT (UniProt Q9UNH7)
T1 sequence: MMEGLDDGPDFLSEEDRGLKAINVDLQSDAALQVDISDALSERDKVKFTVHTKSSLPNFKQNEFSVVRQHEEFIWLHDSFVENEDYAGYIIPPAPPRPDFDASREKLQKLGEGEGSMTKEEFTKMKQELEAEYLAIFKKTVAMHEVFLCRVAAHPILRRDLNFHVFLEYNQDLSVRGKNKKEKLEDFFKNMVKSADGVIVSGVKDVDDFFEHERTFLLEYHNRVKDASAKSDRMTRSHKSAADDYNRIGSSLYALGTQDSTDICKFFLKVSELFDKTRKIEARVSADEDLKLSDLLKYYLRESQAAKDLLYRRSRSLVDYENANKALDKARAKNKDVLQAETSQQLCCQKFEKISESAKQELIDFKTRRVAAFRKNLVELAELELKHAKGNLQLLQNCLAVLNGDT
Test: co-IP; HEK293T transfected with Flag-YFP-SNX6 constructs; p100 fractions immunopurified with anti-Flag antibody; blotted with anti-SNX1 and anti-Flag

binding: binds
Substance: SNX1 (endogenous) (from UniProt Q13596 1-522)
